According to PubChem BioAssay AID493014 (National Center for Advancing Translational Sciences (NCATS), 2011):
This is one part of the list. The main result of the screen is listed elsewhere. These columns were measured beside it and carry no call. Compounds called inactive in the main read-out are mostly missing here. The note in brackets gives the kind of curve behind each potency; many fits are weak.

Assay: qHTS Assay to Find Inhibitors of Chronic Active B-Cell Receptor Signaling
Conditions: ABC-DLBCL IkBa-CBG/CBR reporter, luminescence ratio (green luciferase fused to IkBa over red control in TMD8 lymphoma cells), 4 h
Outline: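 Compounds up to 46 uM were incubated four hours with TMD8 cells whose green CBG68 luciferase is fused to IkappaBalpha; red CBR luminescence normalised the signal, and concentration-effect curves were fitted to fusion, red and ratio data.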

[1] = measured here: CBR red luminescence, cell number
[2] = measured here: IkBa-CBG green luminescence

Structure (SMILES) | AC50 [1] | AC50 [2]
CCOCCCNC(=O)c1ccc2c(c1)N(CC)C(=O)c1ccccc1S2=O (centres undefined) | 0.398 µM [rising, partial curve, poor fit] | –
CC(C)(C)c1ccc(C(=O)c2cn[nH]c2-c2ccccc2O)cc1 | 15.8 µM [falling, single point] | –
Cc1cc(NC(=O)c2cc(-c3ccccc3C)nc3ccccc23)no1 | 1.84 µM [falling, full curve, poor fit] | –
COc1ccc2nc(C)cc(Nc3ccc(N4CCN(C)CC4)cc3)c2c1 | 5.62 µM [falling, partial curve] | –
COc1cc(-c2nc3cnccn3c2Nc2ccc3c(c2)OCCO3)ccc1O | 16.4 µM [rising, partial curve, poor fit] | 20.6 µM [falling, single point]
COc1ccc(/C=C/C(=O)Oc2cccc(/C=N/NC(=O)COc3c(C)cccc3C)c2)cc1 | 2 µM [rising, partial curve, poor fit] | –
O=C(NN=C1CCCCCCC1)c1ccc(F)cc1 | 8.91 µM [falling, partial curve] | –
Cc1ccc(NC(=O)Nc2ccccc2C(N)=O)cc1 | 3.98 µM [falling, partial curve, poor fit] | –
O=C(Nc1c(-c2ccc(F)cc2)nc2ccccn12)c1ccc(F)cc1 | 0.224 µM [rising, full curve, poor fit] | –
COC(=O)CCCCCCCCC(O)CN(C)C (centres undefined) | 14.1 µM [rising, partial curve] | –
CCOc1ccc(NC(=O)C(C)Oc2ccccc2C(=O)Nc2ccc(C)c(Cl)c2)cc1 (centres undefined) | 1 µM [rising, partial curve] | –
CCN1CCN(S(=O)(=O)c2ccc(Cl)c(C(=O)N(C)Cc3cccs3)c2)CC1 | 29.1 µM [rising, single point] | –
O=C(NNC(=S)NC(=O)c1cccc([N+](=O)[O-])c1)c1ccc(O)cc1 | 25.1 µM [falling, single point] | –
Cc1nc2nc(SCC(=O)c3cccc([N+](=O)[O-])c3)[nH]c2cc1Br | 16.4 µM [falling, partial curve, poor fit] | –
CSc1ccc(Cl)c(C(=O)OCC(=O)N2CCN(C(=O)c3ccco3)CC2)c1 | – | 25.9 µM [falling, partial curve, poor fit]
COc1cc(C(C)=O)ccc1OC(C)C(=O)Nc1ccc(S(=O)(=O)N2CCCC2)cc1 (centres undefined) | 29.1 µM [rising, single point] | –
CCn1c(C(=O)N2CCCC(C(=O)NCCc3ccc(C)cc3)C2)cc2sccc21 (centres undefined) | 15.8 µM [falling, single point] | –
Cc1ccc(-c2nnn(Cc3nc4ccccc4s3)n2)cc1 | 6.51 µM [rising, single point] | –
COc1ccc(Nc2nc(Cl)nc(Nc3ccc(OC)cc3)n2)cc1 | 0.562 µM [falling, partial curve, poor fit] | –
NC(=S)N/N=C/c1coc2cc(Br)ccc2c1=O | 7.94 µM [rising, partial curve] | 7.08 µM [rising, full curve, poor fit]

Structure (SMILES) | AC50 [1] | AC50 [2]
CCN(C(=O)CSc1nc2ccccc2c(=O)n1-c1ccccc1F)C1CCS(=O)(=O)C1 (centres undefined) | 4.11 µM [rising, single point] | –
Cc1cc(C)c2nc(Nc3nc(-c4ccccc4)cc(=O)[nH]3)nc(C)c2c1 | 15.8 µM [falling, partial curve] | –
COc1ccc(CCNC(=O)CCS(=O)(=O)Cc2ccccc2C)cc1OC | 0.1 µM [rising, full curve, poor fit] | –
C=CCNC(=S)N/N=C(\C)c1cccnc1 | 35.5 µM [falling, single point] | 35.5 µM [falling, single point]
CCOC(=O)c1ccc(N2CCCCC2)c(NS(=O)(=O)c2ccc(C)cc2)c1 | 35.5 µM [rising, single point] | 35.5 µM [falling, single point]
CCN(CC)S(=O)(=O)c1cc(NS(=O)(=O)c2cccc(Cl)c2Cl)ccc1C | 18.4 µM [falling, single point] | –
O=C(NCc1ccc(Cl)cc1)c1noc2c1CCCC2 | 8.2 µM [rising, partial curve] | –
COc1ccc(NC(=O)CC2C(=O)NCCN2C(=O)Nc2ccc(C(F)(F)F)cc2)cc1 (centres undefined) | 14.1 µM [falling, single point] | –
CC(=O)c1ccc(Sc2ccccn2)c([N+](=O)[O-])c1 | 6.31 µM [rising, single point] | –
CCCCC/C=C/C1=CC(=O)C[C@H](c2ccc(OC)cc2)C1 | 1.3 µM [falling, partial curve] | –
O=C(Nc1ccc2ccccc2n1)c1ccc(Cl)cc1 | 7.08 µM [falling, partial curve] | –
CC1=CCC2C(=O)N(c3cc(C)on3)C(=O)C2C1 (centres undefined) | 13 µM [falling, partial curve] | –
Cn1cnnc1SC(C(=O)Nc1ccc(F)cc1)c1ccccc1 (centres undefined) | 29.1 µM [rising, single point] | –
NC(=O)COC(=O)c1ccc(Cl)c(S(=O)(=O)N2CCN(c3ccc(F)cc3)CC2)c1 | 35.5 µM [falling, single point] | –
CC(C)CNC(=O)COc1ccc2c3c(c(=O)oc2c1)CCC3 | 17.8 µM [rising, partial curve, poor fit] | –
OC(C[n+]1ccccc1)c1ccccc1 (centres undefined) | 35.5 µM [rising, single point] | –
Cc1cnc(NC(=O)CCCSc2nc3ccccc3s2)s1 | 2.24 µM [rising, partial curve, poor fit] | –
Cc1cccc(C)c1OCc1nc2ccccc2c(=O)n1/N=C/c1c[nH]c2ccccc12 | 29.1 µM [falling, single point] | –
CCOC(=O)c1oc2ccccc2c1NC(=O)CCl | 20 µM [falling, partial curve, poor fit] | –
O=C(Nc1ccc2c(c1)OCO2)Nc1ccccc1F | 3.98 µM [falling, full curve] | –

Whole records, looked up by structure:
Cn1cnnc1SC(C(=O)Nc1ccc(F)cc1)c1ccccc1 (centres undefined) is entered as AC50 [1]: 29.1 µM [rising, single point]
CC(=O)c1ccc(Sc2ccccn2)c([N+](=O)[O-])c1 is entered as AC50 [1]: 6.31 µM [rising, single point]
